# Primary screen of a compound library

Chains of the proteins cited; added tags and fusions are not shown. Residues count along the entry.
UniProt I6X8D2, whole entry: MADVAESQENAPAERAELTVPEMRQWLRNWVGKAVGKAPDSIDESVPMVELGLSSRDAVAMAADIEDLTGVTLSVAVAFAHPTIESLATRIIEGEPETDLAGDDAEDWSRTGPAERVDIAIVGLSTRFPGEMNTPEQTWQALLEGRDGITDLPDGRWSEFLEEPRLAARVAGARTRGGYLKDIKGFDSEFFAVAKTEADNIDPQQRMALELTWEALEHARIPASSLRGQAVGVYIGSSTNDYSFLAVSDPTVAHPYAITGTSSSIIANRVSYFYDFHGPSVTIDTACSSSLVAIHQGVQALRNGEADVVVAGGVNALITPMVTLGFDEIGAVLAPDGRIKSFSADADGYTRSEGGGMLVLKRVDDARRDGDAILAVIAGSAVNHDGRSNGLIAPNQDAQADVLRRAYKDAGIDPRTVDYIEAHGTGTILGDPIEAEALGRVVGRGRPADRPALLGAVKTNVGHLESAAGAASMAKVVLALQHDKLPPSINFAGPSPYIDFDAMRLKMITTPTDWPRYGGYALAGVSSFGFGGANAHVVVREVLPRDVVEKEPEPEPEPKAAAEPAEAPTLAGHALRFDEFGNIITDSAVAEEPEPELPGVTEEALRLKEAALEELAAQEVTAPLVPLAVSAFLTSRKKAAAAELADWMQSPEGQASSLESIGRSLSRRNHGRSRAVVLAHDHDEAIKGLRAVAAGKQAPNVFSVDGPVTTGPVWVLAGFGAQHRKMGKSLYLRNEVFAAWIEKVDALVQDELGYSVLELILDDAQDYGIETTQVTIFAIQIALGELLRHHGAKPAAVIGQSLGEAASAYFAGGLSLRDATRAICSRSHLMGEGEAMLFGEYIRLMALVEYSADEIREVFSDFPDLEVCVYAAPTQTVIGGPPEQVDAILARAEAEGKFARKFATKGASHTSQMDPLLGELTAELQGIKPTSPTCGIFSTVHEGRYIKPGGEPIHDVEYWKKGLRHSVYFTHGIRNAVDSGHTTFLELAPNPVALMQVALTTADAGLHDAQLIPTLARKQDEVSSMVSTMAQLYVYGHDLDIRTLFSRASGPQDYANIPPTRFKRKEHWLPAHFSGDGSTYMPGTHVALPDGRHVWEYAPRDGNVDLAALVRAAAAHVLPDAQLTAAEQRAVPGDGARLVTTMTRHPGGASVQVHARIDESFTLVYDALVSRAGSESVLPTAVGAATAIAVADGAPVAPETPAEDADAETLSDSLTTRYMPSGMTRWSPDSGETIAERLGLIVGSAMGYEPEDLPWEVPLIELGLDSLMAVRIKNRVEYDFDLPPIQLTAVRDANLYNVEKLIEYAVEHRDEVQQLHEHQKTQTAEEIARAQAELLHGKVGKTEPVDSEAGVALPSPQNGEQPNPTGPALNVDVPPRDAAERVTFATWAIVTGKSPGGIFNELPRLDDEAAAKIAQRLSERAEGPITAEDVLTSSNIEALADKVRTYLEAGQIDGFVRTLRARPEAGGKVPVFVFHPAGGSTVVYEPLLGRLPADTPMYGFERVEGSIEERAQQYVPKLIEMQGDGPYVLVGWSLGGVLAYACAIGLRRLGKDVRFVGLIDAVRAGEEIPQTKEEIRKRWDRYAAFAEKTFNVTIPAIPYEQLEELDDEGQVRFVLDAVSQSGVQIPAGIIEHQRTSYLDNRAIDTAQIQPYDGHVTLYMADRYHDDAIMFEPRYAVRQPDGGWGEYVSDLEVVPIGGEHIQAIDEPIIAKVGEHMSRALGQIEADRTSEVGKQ
UniProt A4I591, 1-473: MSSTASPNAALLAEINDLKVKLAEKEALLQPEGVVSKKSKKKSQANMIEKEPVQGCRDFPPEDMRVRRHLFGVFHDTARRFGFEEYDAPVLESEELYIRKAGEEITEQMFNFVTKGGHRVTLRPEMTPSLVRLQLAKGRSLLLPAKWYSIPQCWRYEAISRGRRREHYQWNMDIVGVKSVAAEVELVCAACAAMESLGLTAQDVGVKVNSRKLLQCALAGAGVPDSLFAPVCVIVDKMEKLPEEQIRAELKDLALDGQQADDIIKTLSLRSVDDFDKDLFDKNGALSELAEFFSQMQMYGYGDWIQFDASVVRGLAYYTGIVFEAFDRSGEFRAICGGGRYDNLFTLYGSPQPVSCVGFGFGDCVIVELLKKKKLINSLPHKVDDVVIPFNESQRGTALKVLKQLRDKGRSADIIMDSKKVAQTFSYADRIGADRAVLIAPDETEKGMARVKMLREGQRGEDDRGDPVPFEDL
UniProt P9WPC5, whole entry: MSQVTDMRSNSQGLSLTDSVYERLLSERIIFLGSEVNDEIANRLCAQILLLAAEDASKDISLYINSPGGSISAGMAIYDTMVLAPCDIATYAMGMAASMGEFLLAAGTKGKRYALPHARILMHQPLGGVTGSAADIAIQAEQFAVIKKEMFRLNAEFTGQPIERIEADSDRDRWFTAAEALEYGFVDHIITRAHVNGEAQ
UniProt P9WPC3, whole entry partner: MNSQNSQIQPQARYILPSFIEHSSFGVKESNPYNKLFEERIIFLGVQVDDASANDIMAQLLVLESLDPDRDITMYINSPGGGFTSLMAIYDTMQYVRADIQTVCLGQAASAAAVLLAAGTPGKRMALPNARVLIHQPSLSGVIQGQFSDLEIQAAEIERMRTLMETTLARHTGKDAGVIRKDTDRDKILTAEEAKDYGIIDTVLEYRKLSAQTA
UniProt P9WNZ1, whole entry: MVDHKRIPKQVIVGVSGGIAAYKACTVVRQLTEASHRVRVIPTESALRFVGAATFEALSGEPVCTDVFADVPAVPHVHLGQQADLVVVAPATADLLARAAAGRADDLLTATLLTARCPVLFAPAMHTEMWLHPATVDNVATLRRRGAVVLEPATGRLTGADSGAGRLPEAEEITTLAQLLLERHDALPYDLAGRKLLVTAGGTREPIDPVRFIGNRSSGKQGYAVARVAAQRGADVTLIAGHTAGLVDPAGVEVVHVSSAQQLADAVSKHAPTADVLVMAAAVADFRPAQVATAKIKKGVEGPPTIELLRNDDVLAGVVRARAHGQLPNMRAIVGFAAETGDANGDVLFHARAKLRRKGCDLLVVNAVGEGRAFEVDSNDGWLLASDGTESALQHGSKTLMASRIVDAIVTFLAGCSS

The values are deposited in ChEMBL (CHEMBL3988442, “University of Dundee, Small-Polar-MMV Screening Library” (2021)).

Pks13 thioesterase: 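Enzyme assay of the thioesterase domain of polyketide synthase 13; the read-out is not stated. Target: Polyketide synthase Pks13, Mycobacterium tuberculosis (UniProt I6X8D2). Concentration: 30 µM. The record gives no direction; the compounds picked for IC50 retests had high values, so higher reads as stronger inhibition. Size under these conditions: about 67,000 compounds, about 300 of them at 50% or above in at least one test.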
LiHisRS: 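Enzyme assay of histidyl-tRNA synthetase; the read-out is not stated. Target: Histidine-tRNA ligase, Leishmania infantum (UniProt A4I591). Compounds at 30 µM. The record gives no direction; compounds that gave an IC50 in retests scored well above the rest, so higher reads as stronger inhibition. The assay is labelled LdHisRS but filed under L. infantum. Of about 69,000 compounds tested this way, about 410 (0.6%) reached 50% or more in at least one test.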
Leishmania in macrophages: 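Cell assay of Leishmania donovani living inside macrophages; the read-out is not stated. Tested at 30 µM. Direction is inferred from retests: higher values go with stronger inhibition. Size under these conditions: about 69,000 compounds, about 1,000 of them at 50% or above in at least one test.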
ClpP1P2: 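Protease assay of ClpP1P2, read by the AMC dye that it sets free. Target: ClpP1P2, Mycobacterium tuberculosis (UniProt P9WPC5 and UniProt P9WPC3). Compounds at 50 µM. Higher reads as stronger inhibition, judged from the few compounds that gave an IC50. Most other retested compounds had strongly negative values. Of about 69,000 compounds tested this way, about 10 (0.015%) reached 50% or more in at least one test.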
Toxoplasma: 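Assay of Toxoplasma gondii numbers, read through their beta-galactosidase reporter with a colour substrate. Compounds at 10 µM. Higher reads as fewer parasites (inferred from which compounds were picked for retests). Of about 67,000 compounds tested this way, about 260 (0.38%) reached 50% or more in at least one test.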
CoaBC: 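Coenzyme A biosynthesis protein CoaBC, Mycobacterium tuberculosis (UniProt P9WNZ1). Enzyme assay of CoaBC with a phosphate dye (Biomol Green) read at 650 nm. Tested at 30 µM. Higher reads as stronger inhibition, judged from the few compounds that gave an IC50. Most strong results did not repeat in a second test. About 67,000 compounds were tested under these conditions; 0.06% (about 40) showed 50% or more at least once.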

Values are the deposited “Percent Effect”, in %. The record does not define 0% and 100%; most values in the screen are far below 50% and negative numbers occur (in some assays of this library far below -100). Compounds were drawn at random from those tested, without regard to their results. Two or more numbers in one place are separate tests of the same structure; such repeats can differ widely. A dash means the value is not listed here; it may have been measured.

structure | Pks13 thioesterase | LiHisRS | Leishmania in macrophages | ClpP1P2 | Toxoplasma | CoaBC
CCc1cc(NCCCOC2CCCC2)ncn1 | -14.46 | 13.11 | 51.18 | -12.59 | 14.22 | -2.751
O=S(=O)(c1ccccc1)N1CCOC(Cn2ccnc2)C1 (centres unmarked) | -6.564 | 10 | 22.98 | -14.62 | -4.718 | -0.7282
COCC(=O)N1CCCN(Cc2cc(O)c3ccccc3n2)CC1 | 6.948 | 21.6 | -47.81 | -0.8548 | -14.11 | -1.568
Cc1nc(C(C)(C)NC(=O)Nc2ccccc2)no1 | -9.489 | 9.615 | 11.06 | -1.828 | 2.299 | -1.919
[H][C@]12CCCCN1CCC[C@@]2(O)CNCCOc1ccccc1 | - | - | -26.19 | - | 8.347 | -
COc1ccc(NC(=O)CCC2CCCN(S(=O)(=O)C3CC3)C2)c(C)c1 (centres unmarked) | -6.573 | 16.67 | 8.184 | 9.693 | -1.276 | 0.2141
CC(=O)N1CCCC(Cc2nccn2C)C1 (centres unmarked) | 0.2601 | 21.74 | 9.836 & 9.311 | -14.46 | -8.934 | 3.155
CN1CCc2cc(C(CNS(=O)(=O)c3cccs3)N3CCCC3)ccc21 (centres unmarked) | -15.57 | 18.45 | 10.23 | 19.4 | -2.661 | 2.662
Cc1ccnn1CCC(=O)N1CCCC2(C1)NC(=O)c1ccccc1O2 (centres unmarked) | -0.7329 | 8.696 | 10.17 | -3.257 | 25.44 | -8.673
CN1CCOC[C@H]1c1nc(-c2cccc(F)c2)c[nH]1 | -10.5 | 16.67 | -7.411 | 6.577 | -1.725 | 9.255
CN(Cc1ccccc1)CC(O)Cn1cnc2ccsc2c1=O (centres unmarked) | -3.428 | 0 | 17.49 | -0.362 | 14.36 | 3.627
Cc1n[nH]c2c1C(c1cccnc1)SCC(=O)N2 (centres unmarked) | 6.307 | 1.087 | -1.47 | -9.527 | 0.1348 | 2.785
CCOC(=O)c1s/c(=N\C(=O)COc2cnc(C)cc2O)[nH]c1C | -14.4 | 2.5 | -30.6 | -24.87 | 0.7646 | 4.177
O=C(O)C(F)(F)F.O=C(O)C(F)(F)F.O=C(O)C(F)(F)F.[H][C@@]12COC[C@]1([H])[C@H](OCc1ccccn1)CN2Cc1cccnc1 | - | - | -0.4082 | - | -26.31 | -
CC(=O)c1c(N(C)C)ccnc1C(F)(F)F | -11.93 | -2.941 | 14.06 | -1.998 | -5.229 | 2.444
CCOc1cc(C(=O)O)cc(-c2ccccc2)c1OC | -26.08 | 3.448 | 9.952 | 8.762 | 8.59 | 6.21
CCNc1cc2c(nn1)CCN(C(=O)c1cccc(CSC)c1)C2 | -7.214 | 5.357 | 23.94 | -28.59 | -22.9 | 7.224
CNC(=O)Cc1noc(-c2cc3c(s2)CCC(C)(C)C3)n1 | 23.77 | 5 | -23.39 | 2.964 | 5.418 | -5.423
CC1(C)OC(=O)N(CCCC(=O)c2ccc(F)cc2)C1=O | -14.16 | 25.3 | -11.47 | -8.144 | -2.933 | -0.3764
Cc1nc(NC(=O)N(C)Cc2ccoc2)nn1C | - | 1.042 | 24.83 | -5.261 | 7.557 | -1.542
CC(C)n1cnnc1C1CCCN(C(=O)COCc2ccccc2)C1 (centres unmarked) | -3.474 | 13.16 | -6.461 | -20.29 | 26.76 | -1.979
[H][C@@]12CN(Cc3ccccc3C)CC[C@]1([H])N(C(C)=O)C[C@H]2c1ccsc1 | - | - | 0.5265 & -8.177 | - | 43.18 | -
CCOc1ccccc1C1CCCN1.Cl (centres unmarked) | - | - | 19.59 | - | 0.2514 | -
Cn1cc(CN(Cc2ccccn2)Cc2ccccc2Cl)cn1 | -5.314 | 11.43 | 29.65 | -35.42 | -18.48 | -0.4854
CSc1ncccc1C(=O)Nc1ccc(Cn2ccccc2=O)cc1 | -12.86 | 12.94 | 28.7 | 17.88 | 32.85 | -0.6472
CCc1ccc(OCC(O)CN2CCN(CC)CC2)cc1 (centres unmarked) | -11.46 | -4.425 | -1.247 | -7.445 | -7.565 | 0.5222
O=C(NC[C@H]1OC[C@@H](NC(=O)c2ccccc2)[C@@H]1O)c1ccncc1 | -33.61 | 24.32 | 34.9 | -8.46 | 18.82 | 7.269
Cc1cccc(CN2CCN(C(=O)N(C)C)[C@@H]3CS(=O)(=O)C[C@@H]32)n1 | -6.959 | 5.556 | - | -6.479 | - | -2.381
CC(C)NC(=O)[C@H]1C[C@@H]2[C@@H](C1)OCCN2Cc1ccncc1 | -29.74 | 19.44 | - | -12.48 | - | 4.194
CC(C)c1nc(S(=O)(=O)Nc2ccnn2C2CCCC2)c[nH]1 | -21.85 | 11.43 | 26.22 | -1.322 | 7.099 | 14.9
Cc1nn(C)cc1CC(C#N)C(=O)Nc1cccc(O)c1 (centres unmarked) | -4.651 | 14.29 | -4.007 | 1.079 | 1.797 | -47.17
CCNC(=O)N1CCC(Nc2nccc(NCC)n2)CC1 | -15.99 | 11.11 | 6.895 | 6.198 | 3.873 | 3.382
COCc1ccc(CN2CCC(O)(Cn3ccc4ncccc43)CC2)o1 | -10.37 | 10.95 | - | -1.222 | - | -5.44
CC(=O)N(C)C1CCN(C(=O)NCCc2cc(F)ccc2F)CC1 | -22.89 | 9.783 | -17.02 | -2.07 | 18.6 | 0.8475
Cc1cc(C)n(-c2cncc(NCCNC(=O)C(C)(C)C)n2)n1 | 27.03 | 20.51 | -21.11 & 1.32 | -58.35 | -3.738 | 2.799
O=C(O)C(F)(F)F.[H][C@]12CCN(Cc3nccs3)[C@@]1([H])C[C@@H](C(=O)N1CCOCC1)O2 | - | - | 4.526 | - | -11.28 | -
CCN(C)C[C@H]1CC[C@@H](Cc2ccc3c(cnn3C)c2)O1 | -21.66 | 1.316 | -0.9976 | -7.712 | -1.784 | 0

The last 3 entries again:

structure,Pks13 thioesterase,LiHisRS,Leishmania in macrophages,ClpP1P2,Toxoplasma,CoaBC
Cc1cc(C)n(-c2cncc(NCCNC(=O)C(C)(C)C)n2)n1,27.03,20.51,-21.11 & 1.32,-58.35,-3.738,2.799
O=C(O)C(F)(F)F.[H][C@]12CCN(Cc3nccs3)[C@@]1([H])C[C@@H](C(=O)N1CCOCC1)O2,-,-,4.526,-,-11.28,-
CCN(C)C[C@H]1CC[C@@H](Cc2ccc3c(cnn3C)c2)O1,-21.66,1.316,-0.9976,-7.712,-1.784,0